At least one compound was matched to its structure with a doubt left.
Tested on: topoisomerase I
Test: Topoisomerase I expression in U87MG cells after TMZ exposure (lysis, immunoprecipitation, gel)
Format: cell-based, human
Settings: TMZ 50-200 μM, 48 hours

Cn1nnc2c(C(N)=O)ncn2c1=O [TMZ, temozolomide]
topoisomerase I expression: clear upregulation

Reference: patent publication US20150258085A1, “Treating Tumors of the Central Nervous System” (THE REGENTS OF THE UNIVERSITY OF CALIFORNIA, priority 2012, published 2015)
